Leishmania in macrophages: 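Cell assay of Leishmania donovani living inside macrophages; the read-out is not stated. Tested at 30 µM. Higher reads as stronger inhibition (inferred: compounds with an IC50 in retests scored well above the rest). Of about 69,000 compounds tested this way, about 1,000 (1.5%) reached 50% or more in at least one test.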
ClpP1P2: 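Protease assay of ClpP1P2, read by the AMC dye that it sets free. Target: ClpP1P2, Mycobacterium tuberculosis (UniProt P9WPC5 and UniProt P9WPC3). Concentration: 50 µM. Direction is inferred from only a few compounds that gave an IC50; most scored high, so higher reads as stronger inhibition. Most other retested compounds had strongly negative values. Of about 69,000 compounds tested this way, about 10 (0.015%) reached 50% or more in at least one test.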
Toxoplasma: 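Assay of Toxoplasma gondii numbers, read through their beta-galactosidase reporter with a colour substrate. Concentration: 10 µM. Higher reads as fewer parasites (inferred from which compounds were picked for retests). Of about 67,000 compounds tested this way, about 260 (0.38%) reached 50% or more in at least one test.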
PfKRS1: 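Enzyme assay of the cytosolic lysyl-tRNA synthetase in 384-well plates, read by luminescence. Target: Lysine-tRNA ligase, Plasmodium falciparum 3D7 (UniProt Q8IDJ8). Compounds at 30 µM. Direction is inferred from only a few compounds that gave an IC50; most scored high, so higher reads as stronger inhibition. Size under these conditions: about 69,000 compounds, about 49 of them at 50% or above in at least one test.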

The chains behind the UniProt entries cited, without tags or fusion partners. Residues count along the entry.
UniProt P9WPC5, whole entry: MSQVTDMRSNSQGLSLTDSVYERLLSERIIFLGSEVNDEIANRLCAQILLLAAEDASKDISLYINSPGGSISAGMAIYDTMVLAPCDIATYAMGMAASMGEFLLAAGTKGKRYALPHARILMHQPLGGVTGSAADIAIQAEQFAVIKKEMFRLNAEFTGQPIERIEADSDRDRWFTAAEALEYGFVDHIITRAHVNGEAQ
UniProt P9WPC3, whole entry partner: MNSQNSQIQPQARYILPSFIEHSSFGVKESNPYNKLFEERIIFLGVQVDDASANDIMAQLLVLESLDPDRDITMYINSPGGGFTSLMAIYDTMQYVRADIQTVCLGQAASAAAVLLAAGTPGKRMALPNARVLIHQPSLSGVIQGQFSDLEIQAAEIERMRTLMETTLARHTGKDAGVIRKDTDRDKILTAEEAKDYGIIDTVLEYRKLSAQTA
UniProt Q8IDJ8, 1-583: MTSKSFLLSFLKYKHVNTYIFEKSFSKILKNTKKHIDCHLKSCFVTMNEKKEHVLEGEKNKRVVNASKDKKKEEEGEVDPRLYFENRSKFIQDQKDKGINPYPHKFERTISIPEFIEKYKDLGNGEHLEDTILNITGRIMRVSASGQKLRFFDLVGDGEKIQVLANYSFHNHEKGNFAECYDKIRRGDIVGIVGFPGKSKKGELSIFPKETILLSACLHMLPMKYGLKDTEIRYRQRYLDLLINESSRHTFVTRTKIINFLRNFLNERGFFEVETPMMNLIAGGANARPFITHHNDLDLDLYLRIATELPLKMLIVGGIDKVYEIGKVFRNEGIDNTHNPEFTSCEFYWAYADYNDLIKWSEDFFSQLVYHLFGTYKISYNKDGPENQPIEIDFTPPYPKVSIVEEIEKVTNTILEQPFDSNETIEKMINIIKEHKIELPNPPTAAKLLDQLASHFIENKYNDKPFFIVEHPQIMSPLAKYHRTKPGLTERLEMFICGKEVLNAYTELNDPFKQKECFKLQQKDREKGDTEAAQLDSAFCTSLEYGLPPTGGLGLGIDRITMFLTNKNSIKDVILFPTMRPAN

Results are given as percent effect. How 0% and 100% were set is not recorded. Most values in the screen are low, and negative values occur. The compounds are a random part of those screened. Two or more numbers in one place are separate tests of the same structure; such repeats can differ widely.

- CC(=O)NCc1noc2c1CN(CCN1CCCC1)CC2 : ClpP1P2: -3.776%; PfKRS1: 3.261%
- COCCn1cc(NCc2c[nH]nc2C(C)(C)C)cn1 : Leishmania in macrophages: 29.98%; ClpP1P2: -5.21%; Toxoplasma: -2.536%; PfKRS1: 10.42%
- O=C(O)C(F)(F)F.[H][C@]12CC[C@@]3(N=C(CC)N(C)C3=O)[C@@]1([H])CN(CC1CC1)C2 : Leishmania in macrophages: 21.68%; Toxoplasma: 3.927%
- Fc1ccccc1CN1CCC[C@@H](Cn2nnc(-c3cccs3)n2)C1 : Leishmania in macrophages: 8.348%; ClpP1P2: -5.718%; Toxoplasma: 6.412%; PfKRS1: 1.655%
- CC(C)CN1C(=O)C2(CCN(Cc3ccoc3)C2)c2ccccc21 (stereo not shown) : ClpP1P2: -12.58%; PfKRS1: 4.308%
- c1ccc(-c2nc(CN3CCCC(Cn4cncn4)C3)no2)cc1 (stereo not shown) : Leishmania in macrophages: 16.07%; ClpP1P2: -8.958%; Toxoplasma: -0.9561%; PfKRS1: 3.654%
- O=C(O)COc1ccccc1CN1CCCC1c1cnccn1 (stereo not shown) : Leishmania in macrophages: 12.66%; ClpP1P2: -4.663%; Toxoplasma: 21.61%; PfKRS1: 0.05324%
- COc1ccc(CCC(=O)NCCN2CCC(c3cccs3)CC2)cc1 : Leishmania in macrophages: 6.707%; ClpP1P2: 0.7787%; Toxoplasma: 6.121%; PfKRS1: 6.152%
- O=C1N(c2cncnc2)CCC12CCCN(Cc1cccnc1)C2 (stereo not shown) : ClpP1P2: 3.394%; PfKRS1: -0.4105%
- CCc1cc(NCCS(=O)(=O)N(C)C)nc(N2CCOCC2)n1 : Leishmania in macrophages: 19.54%; ClpP1P2: 1.393%; Toxoplasma: -1.37%; PfKRS1: 4.324%
- CC(CNC(=O)c1cccnc1Oc1cccnc1)N(C)C (stereo not shown) : Leishmania in macrophages: 39.04%; ClpP1P2: -8.07%; Toxoplasma: -1.847%; PfKRS1: 0.8557%
- CCOC(=O)[C@]12CCCN(Cc3nccs3)C[C@H]1CN(CC(C)C)C2 : ClpP1P2: 11.29%; PfKRS1: -2.206%
- Cc1noc(C)c1C1CCCN1C(=O)c1cn2ccsc2n1 (stereo not shown) : Leishmania in macrophages: 10.24%; ClpP1P2: 0.3476%; Toxoplasma: 16.38%; PfKRS1: 4.082%
- CC(CCO)Nc1cccc(C(F)(F)F)n1 (stereo not shown) : Leishmania in macrophages: -7.314%; ClpP1P2: 3.231%; Toxoplasma: -7.016%; PfKRS1: 1.7%
- Nc1nc(C2CCN(C(=O)c3cnccn3)CC2)cs1 : Leishmania in macrophages: -9.382% & 1.19%; ClpP1P2: -2.385%; Toxoplasma: 5.98%; PfKRS1: -1.411%
- Cc1cc(C2CCCN2Cc2nc3ccccc3o2)on1 (stereo not shown) : Leishmania in macrophages: 7.335%; ClpP1P2: -23.53%; Toxoplasma: -25.31%; PfKRS1: 0.02117%
- c1ccc(-c2noc(CCCN3CCCC3Cn3cncn3)n2)cc1 (stereo not shown) : Leishmania in macrophages: 34.35%; ClpP1P2: -10.44%; Toxoplasma: 10.32%; PfKRS1: 2.267%
- CN1CCN(C(=O)c2cn(-c3ccc(C(F)(F)F)cn3)nn2)CC1 : Leishmania in macrophages: 9.62%; ClpP1P2: 0.7132%; Toxoplasma: -10.62%; PfKRS1: 2.017%
- COc1ccccc1CN(Cc1nc2c(cnn2C)c(=O)[nH]1)C1CC1 : Leishmania in macrophages: 13.48%; ClpP1P2: 6.454%; Toxoplasma: -6.15%; PfKRS1: 0.7394%
- COc1ccc(C(NC(=O)NCc2nnc3n2CCC3)C2CC2)cc1 (stereo not shown) : Leishmania in macrophages: -18.68%; ClpP1P2: 8.679%; Toxoplasma: -6.824%; PfKRS1: -6.045%
- Cc1ccc(S(=O)(=O)NCCc2nnc[nH]2)c2cccnc12 : Leishmania in macrophages: -5.352%; ClpP1P2: 8.818%; Toxoplasma: 2.907%; PfKRS1: 3.957%
- CC1c2cccn2CCN1C(=O)CCc1nc(C2CC2)no1 (stereo not shown) : Leishmania in macrophages: -10.16%; ClpP1P2: -16.88%; Toxoplasma: 0%; PfKRS1: 4.209%
- CN(Cc1ccco1)c1ccc(C(=O)NCCCc2ccccn2)cn1 : Leishmania in macrophages: -10.55%; ClpP1P2: -6.857%; Toxoplasma: -11.02%; PfKRS1: 4.076%
- Cc1nc(C(=O)N2CCCCC2c2ccc(CN(C)C)cc2)c(C)o1 (stereo not shown) : Leishmania in macrophages: 6.871%; ClpP1P2: -6.989%; Toxoplasma: -6.072%; PfKRS1: 11.07%
- Cc1cc(C(=O)N2CC[C@H]3C[C@H](c4ccncn4)O[C@@H]3C2)no1 : ClpP1P2: 15.18%; PfKRS1: -2.391%
- CCC(CC)S(=O)(=O)NC(=O)c1ccc2c(c1)ncn2C : Leishmania in macrophages: 16.7%; ClpP1P2: -14.14%; Toxoplasma: -4.019%; PfKRS1: 1.685%

2 of the entries, repeated:

{"smiles": "CC(CCO)Nc1cccc(C(F)(F)F)n1", "stereo": "stereo not shown", "Leishmania in macrophages": -7.314, "ClpP1P2": 3.231, "Toxoplasma": -7.016, "PfKRS1": 1.7}
{"smiles": "CN(Cc1ccco1)c1ccc(C(=O)NCCCc2ccccn2)cn1", "Leishmania in macrophages": -10.55, "ClpP1P2": -6.857, "Toxoplasma": -11.02, "PfKRS1": 4.076}

The values are deposited in ChEMBL (CHEMBL3988442, “University of Dundee, Small-Polar-MMV Screening Library” (2021)).